Laboratory results from PubChem BioAssay AID2685 (National Center for Advancing Translational Sciences (NCATS), 2010).
Some of the results follow. The main result of the screen is listed elsewhere. These columns were measured beside it and carry no call. Most of these compounds were active or inconclusive in the main read-out, so they are no random draw. Words in brackets tell the shape of the fitted curve; partial curves, single points and poor fits give uncertain potencies.

Test: qHTS Assay for Lipid Storage Modulators in Drosophila S3 Cells;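 for cell number change: cells counted by Cell Tracker Red CMTPX staining in the red channel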
Settings: BODIPY lipid droplet fluorescence, 18-24 h; for cell number change: measured here: cell count max response, cells fed with added oleic acid
Summary of the method: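 Drosophila S3 cells got compounds at several concentrations plus oleic acid (400 uM solution). Laser-scanning cytometry with 488 nm excitation read lipid droplets at 500-530 nm and cells at 575-640 nm. Percent activity was relative to 20 uM Triacsin C.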

[1] = measured here: lipid fluorescence (Fed channel) AC50, cells fed with added oleic acid
[2] = measured here: cell number channel AC50, cells fed with added oleic acid

| Compound | cell number change [%] | AC50 [1] | AC50 [2] |
| --- | --- | --- | --- |
| O=C(O)COc1ccc2c(c1)OCCO2 | -13.8 | 29.1 µM [falling, single point] | – |
| Cc1cc(C(=O)NCCCn2ccnc2)sc1-c1ccccc1 | – | – | 2.91 µM [rising, partial curve] |
| CCn1cc(C(=O)O)c(=O)c2cc(F)c(N3CCN(C(=S)NC(=O)c4ccc(Br)cc4)CC3)cc21 | -34.4 | – | – |
| CC(C)C[C@H](NC(=O)N1CCn2c1nc1ccccc12)C(=O)N[C@H](Cc1ccccc1)C(=O)O | 34.3 | – | – |
| O=C(O)Cc1cn(-c2ccccc2)nc1-c1ccc(Cl)cc1 | – | 0.116 µM [falling, single point] | – |
| Cc1cccn2c(=O)c(/C=C(\C#N)S(=O)(=O)c3ccccc3)c(N3CCN(Cc4ccccc4)CC3)nc12 | -10.4 | 6.51 µM [falling, single point] | – |
| O=C(Nc1nc(-c2ccc(-c3ccccc3)cc2)cs1)C1CCCO1 (configuration not stated) | -3.26 | 6.51 µM [rising, single point] | – |
| NNC(=O)c1cc2nc(-c3cccs3)cc(C(F)(F)F)n2n1 | 2.55 | – | 2.31 µM [falling, partial curve] |
| CCCCn1c(N)c(N(CCOC)C(=O)c2cc3c(s2)CCC(C)C3)c(=O)[nH]c1=O (configuration not stated) | 22.9 | – | – |
| COc1ccc(NC(=O)Nc2nnc(-c3ccccc3F)s2)cc1 | 22 | – | – |
| Cn1nccc1NC(=O)Nc1cccc(Cl)c1 | -7.88 | 11.6 µM [falling, single point] | – |
| CCN(C(=O)COc1ccc(F)cc1Br)c1c(N)n(Cc2ccccc2)c(=O)[nH]c1=O | -33.9 | 29.1 µM [falling, single point] | 8.2 µM [falling, partial curve] |
| O=C(CN1C(=O)C2C3C=CC(C3)C2C1=O)Nc1nc(SCc2ccc(Cl)cc2)n[nH]1 (configuration not stated) | -10.8 | – | – |
| CC(C)(C)NC(=O)CSc1ncnc2c1nnn2Cc1ccccc1Cl | -32.6 | 29.1 µM [falling, single point] | 29.1 µM [falling, single point] |
| O=C(Nc1cc2ccccc2oc1=O)C1CCCCC1 | 31.4 | 0.291 µM [rising, full curve, poor fit] | 18.4 µM [rising, partial curve] |
| O=C(/C=C/c1cccc2ccccc12)NCCC1=CCCCC1 | -12.6 | 0.517 µM [falling, single point] | – |
| CC(=O)Oc1ccccc1/C=C1\CCOC1=O | -62.2 | 29.1 µM [falling, single point] | 5.17 µM [falling, full curve] |
| COc1ccc(-c2ccc(=O)n(CC(=O)Nc3cccc(O)c3)n2)cc1OC | -5.31 | 3.26 µM [rising, single point] | – |
| Cc1cccc(-n2c(-c3csc(C(C)C)c3)n[nH]c2=S)c1 | -20.2 | 23.1 µM [rising, partial curve] | – |
| COCCC(=O)N1CCC(Oc2ccc(C(=O)NC3CCOC(C)(C)C3)cc2)CC1 (configuration not stated) | -8.78 | 6.51 µM [falling, single point] | – |

| Compound | cell number change [%] | AC50 [1] | AC50 [2] |
| --- | --- | --- | --- |
| Cc1nn(C(C)C(=O)NC2CCCCCC2)c(=O)c2nn(-c3ccccc3)c(C)c12 (configuration not stated) | -16.5 | – | – |
| N/C(=N\OC(=O)C12CC3CC(CC(C3)C1)C2)c1ccccn1 | -45.1 | 29.1 µM [falling, single point] | 29.1 µM [falling, single point] |
| c1cncc(-c2nc3ccccn3c2Nc2ccc3c(c2)OCCO3)c1 | – | 6.51 µM [rising, single point] | 6.51 µM [rising, single point] |
| COc1cc(C(=O)NCC(=O)N/N=C/c2ccc(-c3cccc([N+](=O)[O-])c3)o2)cc(OC)c1OC | 14.3 | – | – |
| CCCn1c(N)c(N(CCOC)C(=O)COC(=O)CSc2cc(C)c3ccccc3n2)c(=O)[nH]c1=O | – | 2.06 µM [rising, partial curve] | – |
| Cc1ccc(OC(=O)CCC(=O)OCCCC(F)(F)C(F)(F)F)cc1 | -11.7 | 0.731 µM [falling, full curve] | 0.00461 µM [falling, full curve, poor fit] |
| CN(C)c1ccc(/C=C/C=C2/SC(=S)N(c3ccccc3)C2=O)cc1 | -54.3 | – | 25.9 µM [falling, single point] |
| CC(=O)c1cnc2sccn2c1=O | -26.5 | – | – |
| CCn1cc(C(=O)O)c(=O)c2cnc(N3CCN(C(=S)NC(=O)c4ccc(OC)cc4)CC3)nc21 | 9.72 | – | – |
| CC1(C)NC(=O)N(CC(=O)Nc2cc(S(=O)(=O)N3CCOCC3)ccc2N2CCOCC2)C1=O | 29.8 | – | – |
| CC(C)C[C@H](NC(=O)OC(C)(C)C)C(=O)N/N=C/C1=Cc2ccccc2OC1C (some centres not stated) | 32.5 | 20.6 µM [rising, partial curve] | 8.2 µM [rising, partial curve] |
| CN1C(=O)C(O)(C2COC(C)(C)CC2=O)c2cc(Br)ccc21 (configuration not stated) | -12 | 6.51 µM [falling, single point] | – |
| Cc1ccccc1C(=O)N1CCN(c2ccc(N3CCOCC3)nn2)CC1 | -36.3 | 18.4 µM [falling, single point] | 20.6 µM [falling, single point] |
| O=c1c2ccccc2nnn1CSc1ccccc1F | 19.7 | 0.0461 µM [falling, full curve, poor fit] | – |
| Cc1cc([N+](=O)[O-])nn1CC(=O)NCCCN1CCOCC1 | 14 | – | – |
| COc1cc(/C=N/NC(=O)C(=O)NCc2ccco2)cc(Br)c1O | -17.7 | 4.11 µM [falling, partial curve, poor fit] | – |
| CN(C)c1cc[n+](CC(=O)N2c3ccccc3Sc3ccccc32)cc1 | 9.77 | 6.51 µM [falling, single point] | 6.51 µM [falling, single point] |
| CCCCC1CCC(C(=O)Nc2ccc(N3CCOCC3)cc2N2CCOCC2)CC1 (configuration not stated) | -40.8 | 1.84 µM [rising, partial curve] | 29.1 µM [falling, single point] |
| COC(=O)c1[nH]c2ccccc2c1NC(=O)CN1CCC(C(N)=O)(N2CCCCC2)CC1 | 5.12 | – | – |
| CC(=O)Nc1cc(-c2nn(C)c(=O)c3ccccc23)ccc1N1CCCCC1 | 38.1 | – | 2.06 µM [rising, full curve] |

| Compound | cell number change [%] | AC50 [1] | AC50 [2] |
| --- | --- | --- | --- |
| O=C(COC(=O)c1ccc(N2CCCC2=O)cc1)Nc1ccccc1 | 8.06 | 0.0517 µM [falling, full curve, poor fit] | – |
| CC(/C=N/NC(=O)Cn1cnc2c1c(=O)n(C)c(=O)n2C)=C\c1ccccc1 | 31.1 | 10.3 µM [rising, partial curve, poor fit] | 9.2 µM [rising, partial curve, poor fit] |
| COc1ccc([C@H]2CC(=O)C=C(c3ccccc3)C2)cc1 | -12.2 | 0.461 µM [rising, full curve, poor fit] | – |
| CCOC(=O)CC1(NC(=O)c2cc(COc3cccc(OC)c3)on2)CCCCC1 | -27.7 | 1.84 µM [falling, partial curve] | – |
| COc1ccc(CN2CCN(Cc3ccc4cc(F)ccc4n3)CC2CCO)c(C)c1C (configuration not stated) | -23.4 | 20.6 µM [rising, single point] | – |
| Cc1ccc(CCNC(=O)CC2Oc3ccc(C)cc3NC2=O)cc1 (configuration not stated) | 8.81 | 13 µM [rising, partial curve, poor fit] | – |
| COc1ccc(CCNC(=O)COc2ncnc3ccccc23)cc1 | -12.3 | 8.2 µM [falling, partial curve, poor fit] | – |
| Cc1nn(-c2cc(C)c3ccccc3n2)c2c1C1C(C2)C1(C)C (configuration not stated) | -22.8 | 0.58 µM [falling, full curve, poor fit] | – |
| Cc1cccc(NCCC(=O)c2ccc(Br)cc2)c1 | 107 | – | – |
| COc1ccc(N2CCN(C(CNC(=O)C(=O)NCc3ccncc3)c3ccco3)CC2)cc1 (configuration not stated) | -58.9 | – | 1.64 µM [falling, partial curve] |
| CCN(C(C)=O)c1nc(CCl)cs1 | -25.4 | 29.1 µM [falling, single point] | – |
| O=C(c1ccccc1)N1CCN(C(=S)NCc2ccco2)CC1 | 45.3 | – | 29.1 µM [rising, single point] |
| CC1CC(C)CN(C(=O)c2ccc(CSc3nc4ccncc4[nH]3)cc2)C1 (configuration not stated) | 23.5 | 18.4 µM [rising, single point] | – |
| OCCNCc1cc(Br)ccc1OCc1ccc(Cl)cc1Cl | -54.9 | 29.1 µM [falling, single point] | 29.1 µM [falling, single point] |
| CC(CCc1ccccc1)NC(=O)c1ccccc1C(=O)O (configuration not stated) | -35.5 | 29.1 µM [falling, single point] | 0.00411 µM [falling, full curve, poor fit] |
| CCCOc1ccc(C2=CSC3=NCCN23)cc1[N+](=O)[O-] | 27.2 | 13 µM [rising, partial curve] | – |
| CCc1cc2c(-c3ccccc3)cc(=O)oc2c(CN2CCOCC2)c1O | -5.65 | 0.116 µM [rising, full curve, poor fit] | – |
| Nc1nc2ccc(C(=O)N3CCCCC3)cc2s1 | -6.41 | 6.51 µM [falling, partial curve, poor fit] | – |
| COc1ccc(C(=O)C2CCCN(C(=O)C3CCOCC3)C2)cc1OC (configuration not stated) | 21.4 | 6.51 µM [falling, single point] | – |
| CCOC(=O)N1CN(C(=O)OCC)CN(C(=O)OCC)C1 | 5.62 | 11.6 µM [rising, partial curve] | – |

Two records picked at random from the list so far:

| Compound | cell number change [%] | AC50 [1] | AC50 [2] |
| --- | --- | --- | --- |
| CCCOc1ccc(C2=CSC3=NCCN23)cc1[N+](=O)[O-] | 27.2 | 13 µM [rising, partial curve] | – |
| c1cncc(-c2nc3ccccn3c2Nc2ccc3c(c2)OCCO3)c1 | – | 6.51 µM [rising, single point] | 6.51 µM [rising, single point] |
